Source: paper PMC7880295
Results are given in words; binding and its absence hold for the method and conditions named. For some of these results: Binding seen in cells or lysates may run through a third protein. Some entries that bind do so weakly or less than the wild type.

Protein sequences, listed by entry. Tags and fused reporters are not part of them. Lines headed by an entry give the natural chain unless they say otherwise; changes in a name come on top. Chains listed by the source or under a name are the forms on record and can include a tag or linker. Residues count along the entry.
GFP-tagged full-length TRKB (plasmid HP220GFP-TRKB) (Q63604, residues 32-821): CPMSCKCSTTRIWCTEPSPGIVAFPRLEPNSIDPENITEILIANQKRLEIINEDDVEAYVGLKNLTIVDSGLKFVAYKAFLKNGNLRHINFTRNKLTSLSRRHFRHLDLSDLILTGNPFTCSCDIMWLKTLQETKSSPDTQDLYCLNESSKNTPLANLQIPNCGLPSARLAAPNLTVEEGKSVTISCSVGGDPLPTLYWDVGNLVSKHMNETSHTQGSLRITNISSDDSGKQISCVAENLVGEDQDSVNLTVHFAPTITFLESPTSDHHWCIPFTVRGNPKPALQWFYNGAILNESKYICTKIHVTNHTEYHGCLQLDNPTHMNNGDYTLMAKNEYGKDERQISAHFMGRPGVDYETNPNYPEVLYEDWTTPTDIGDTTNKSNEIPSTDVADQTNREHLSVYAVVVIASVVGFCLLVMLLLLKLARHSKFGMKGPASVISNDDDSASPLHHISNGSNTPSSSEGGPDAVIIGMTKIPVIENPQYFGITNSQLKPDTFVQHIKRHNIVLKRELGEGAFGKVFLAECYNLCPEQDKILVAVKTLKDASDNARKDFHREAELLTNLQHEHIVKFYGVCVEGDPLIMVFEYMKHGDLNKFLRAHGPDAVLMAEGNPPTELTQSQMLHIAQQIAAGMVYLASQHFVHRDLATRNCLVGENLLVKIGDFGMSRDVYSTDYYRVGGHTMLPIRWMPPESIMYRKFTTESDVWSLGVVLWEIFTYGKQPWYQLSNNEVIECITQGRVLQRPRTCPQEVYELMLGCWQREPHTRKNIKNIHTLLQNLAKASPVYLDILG
TRKB carrying Y433F/R427A mutation (Q63604, form named): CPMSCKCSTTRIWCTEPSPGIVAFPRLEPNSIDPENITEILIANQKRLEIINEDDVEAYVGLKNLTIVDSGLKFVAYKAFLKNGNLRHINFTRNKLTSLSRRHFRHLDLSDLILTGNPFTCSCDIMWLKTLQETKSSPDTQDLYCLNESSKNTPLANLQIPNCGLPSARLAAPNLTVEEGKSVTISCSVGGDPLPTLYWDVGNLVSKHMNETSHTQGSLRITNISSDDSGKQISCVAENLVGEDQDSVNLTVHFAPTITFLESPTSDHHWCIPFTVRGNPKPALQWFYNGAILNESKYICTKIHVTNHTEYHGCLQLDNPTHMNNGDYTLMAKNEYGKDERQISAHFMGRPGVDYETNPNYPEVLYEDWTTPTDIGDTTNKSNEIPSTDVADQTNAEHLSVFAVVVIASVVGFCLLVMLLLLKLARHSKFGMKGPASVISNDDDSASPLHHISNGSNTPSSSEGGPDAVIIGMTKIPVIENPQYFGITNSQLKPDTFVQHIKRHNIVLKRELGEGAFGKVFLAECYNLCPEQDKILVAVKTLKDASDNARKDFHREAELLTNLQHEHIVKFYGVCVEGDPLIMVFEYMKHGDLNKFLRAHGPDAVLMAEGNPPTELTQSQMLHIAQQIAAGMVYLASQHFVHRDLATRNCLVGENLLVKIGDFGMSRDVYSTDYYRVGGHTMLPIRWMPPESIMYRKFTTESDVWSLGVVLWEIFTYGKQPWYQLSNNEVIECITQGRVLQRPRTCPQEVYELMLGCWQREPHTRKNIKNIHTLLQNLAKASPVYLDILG
PTPσ, endogenous in rat primary cortical neurons (Q64605, residues 30-1907): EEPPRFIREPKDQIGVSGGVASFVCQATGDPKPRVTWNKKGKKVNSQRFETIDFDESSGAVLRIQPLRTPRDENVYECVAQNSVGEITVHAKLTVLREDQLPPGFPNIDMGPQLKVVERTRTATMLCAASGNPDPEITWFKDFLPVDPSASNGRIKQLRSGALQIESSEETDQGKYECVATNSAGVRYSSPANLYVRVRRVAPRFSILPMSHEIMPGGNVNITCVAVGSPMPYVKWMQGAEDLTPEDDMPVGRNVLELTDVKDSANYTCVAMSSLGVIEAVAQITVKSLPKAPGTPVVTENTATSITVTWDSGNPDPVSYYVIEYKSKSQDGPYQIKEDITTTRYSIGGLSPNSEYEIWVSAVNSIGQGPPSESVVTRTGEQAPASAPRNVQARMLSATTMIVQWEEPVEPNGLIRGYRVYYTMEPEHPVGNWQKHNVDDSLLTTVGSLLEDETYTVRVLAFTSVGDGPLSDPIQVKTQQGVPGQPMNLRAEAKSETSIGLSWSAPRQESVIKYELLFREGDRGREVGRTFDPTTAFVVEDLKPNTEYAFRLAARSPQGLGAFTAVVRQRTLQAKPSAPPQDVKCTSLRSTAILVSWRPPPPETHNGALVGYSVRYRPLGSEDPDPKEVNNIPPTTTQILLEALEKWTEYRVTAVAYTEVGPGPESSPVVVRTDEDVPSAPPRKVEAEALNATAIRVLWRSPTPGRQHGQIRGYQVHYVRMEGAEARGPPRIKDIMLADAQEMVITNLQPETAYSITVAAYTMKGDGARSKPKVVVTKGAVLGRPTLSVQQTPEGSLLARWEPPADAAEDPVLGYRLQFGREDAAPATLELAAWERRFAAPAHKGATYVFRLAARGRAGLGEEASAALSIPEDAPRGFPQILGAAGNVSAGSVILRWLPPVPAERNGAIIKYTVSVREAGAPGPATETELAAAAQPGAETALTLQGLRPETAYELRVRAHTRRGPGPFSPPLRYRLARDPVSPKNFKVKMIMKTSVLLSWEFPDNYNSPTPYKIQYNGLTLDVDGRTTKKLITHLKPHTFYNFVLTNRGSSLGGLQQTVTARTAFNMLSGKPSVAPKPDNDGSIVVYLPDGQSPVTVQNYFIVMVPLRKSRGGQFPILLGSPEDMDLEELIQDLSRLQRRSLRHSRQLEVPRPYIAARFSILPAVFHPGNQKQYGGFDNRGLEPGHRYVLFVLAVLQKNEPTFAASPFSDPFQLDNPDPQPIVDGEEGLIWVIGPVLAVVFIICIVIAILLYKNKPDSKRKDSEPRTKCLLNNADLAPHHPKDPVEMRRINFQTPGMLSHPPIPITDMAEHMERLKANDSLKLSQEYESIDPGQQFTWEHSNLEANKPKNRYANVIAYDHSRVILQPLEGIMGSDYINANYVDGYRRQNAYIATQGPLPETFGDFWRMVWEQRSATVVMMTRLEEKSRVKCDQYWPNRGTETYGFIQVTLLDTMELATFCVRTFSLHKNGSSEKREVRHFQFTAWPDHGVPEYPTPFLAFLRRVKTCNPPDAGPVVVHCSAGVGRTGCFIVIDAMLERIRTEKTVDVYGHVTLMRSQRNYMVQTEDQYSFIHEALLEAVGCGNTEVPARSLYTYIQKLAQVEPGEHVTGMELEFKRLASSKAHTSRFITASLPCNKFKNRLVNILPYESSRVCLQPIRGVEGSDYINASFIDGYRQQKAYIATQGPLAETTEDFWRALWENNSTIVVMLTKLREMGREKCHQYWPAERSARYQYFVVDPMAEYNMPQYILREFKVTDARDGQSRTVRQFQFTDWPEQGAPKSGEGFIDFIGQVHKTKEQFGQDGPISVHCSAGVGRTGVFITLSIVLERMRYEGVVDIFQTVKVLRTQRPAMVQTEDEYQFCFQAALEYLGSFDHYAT
PTPσ Myc-DDK-tagged (OriGene ORF plasmid RR209636) (Q64605-2, form named): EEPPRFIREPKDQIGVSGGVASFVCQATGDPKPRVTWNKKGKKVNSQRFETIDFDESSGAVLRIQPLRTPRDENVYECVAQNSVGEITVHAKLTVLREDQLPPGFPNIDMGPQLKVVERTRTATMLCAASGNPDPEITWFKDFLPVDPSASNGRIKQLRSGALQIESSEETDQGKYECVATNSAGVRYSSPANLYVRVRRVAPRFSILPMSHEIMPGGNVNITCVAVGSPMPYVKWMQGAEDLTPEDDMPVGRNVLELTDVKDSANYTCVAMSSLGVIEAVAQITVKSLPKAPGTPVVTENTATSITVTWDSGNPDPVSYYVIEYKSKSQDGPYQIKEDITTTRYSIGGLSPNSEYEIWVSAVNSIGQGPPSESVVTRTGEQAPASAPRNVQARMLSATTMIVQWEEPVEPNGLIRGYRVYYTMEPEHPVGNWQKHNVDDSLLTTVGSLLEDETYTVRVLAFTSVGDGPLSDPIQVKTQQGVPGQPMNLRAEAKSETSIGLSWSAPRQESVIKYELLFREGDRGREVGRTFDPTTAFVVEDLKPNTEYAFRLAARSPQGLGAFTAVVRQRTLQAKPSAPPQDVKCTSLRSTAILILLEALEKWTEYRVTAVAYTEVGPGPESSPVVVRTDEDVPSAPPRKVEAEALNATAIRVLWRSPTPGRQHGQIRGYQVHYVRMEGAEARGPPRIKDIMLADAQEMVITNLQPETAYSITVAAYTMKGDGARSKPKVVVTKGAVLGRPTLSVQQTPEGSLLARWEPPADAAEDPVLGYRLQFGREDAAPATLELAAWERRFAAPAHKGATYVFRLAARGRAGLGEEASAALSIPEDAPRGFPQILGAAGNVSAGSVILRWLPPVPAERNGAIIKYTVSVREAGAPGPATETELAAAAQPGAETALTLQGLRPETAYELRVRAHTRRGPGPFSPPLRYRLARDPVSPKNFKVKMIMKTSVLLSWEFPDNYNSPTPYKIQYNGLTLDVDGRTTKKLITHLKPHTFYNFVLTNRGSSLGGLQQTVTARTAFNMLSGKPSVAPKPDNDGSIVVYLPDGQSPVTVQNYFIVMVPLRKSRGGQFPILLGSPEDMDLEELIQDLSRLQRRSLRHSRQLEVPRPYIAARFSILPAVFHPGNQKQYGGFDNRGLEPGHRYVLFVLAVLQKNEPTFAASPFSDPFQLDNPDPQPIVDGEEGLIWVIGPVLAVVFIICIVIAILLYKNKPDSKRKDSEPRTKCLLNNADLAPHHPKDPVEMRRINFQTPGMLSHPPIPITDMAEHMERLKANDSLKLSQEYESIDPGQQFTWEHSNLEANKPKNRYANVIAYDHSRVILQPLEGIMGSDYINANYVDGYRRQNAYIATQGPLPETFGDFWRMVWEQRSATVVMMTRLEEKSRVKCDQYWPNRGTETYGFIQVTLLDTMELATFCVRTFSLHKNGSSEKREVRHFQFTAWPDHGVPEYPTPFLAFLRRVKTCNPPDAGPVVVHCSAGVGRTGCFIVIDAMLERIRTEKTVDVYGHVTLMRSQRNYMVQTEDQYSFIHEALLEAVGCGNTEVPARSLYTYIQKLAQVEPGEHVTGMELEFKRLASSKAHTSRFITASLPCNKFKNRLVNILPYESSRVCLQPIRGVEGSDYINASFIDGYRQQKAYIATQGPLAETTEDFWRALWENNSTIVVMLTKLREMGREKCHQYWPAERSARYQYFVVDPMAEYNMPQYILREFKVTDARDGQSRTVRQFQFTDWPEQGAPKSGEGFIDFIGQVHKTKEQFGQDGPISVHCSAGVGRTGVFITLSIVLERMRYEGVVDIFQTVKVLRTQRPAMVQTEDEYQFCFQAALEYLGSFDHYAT

What was measured:
[1] = target: full-length TRKB stably expressed in MG87.TRKB mouse fibroblast cells (UniProt Q63604); experiment: co-IP; MG87.TRKB cells, transfected with myc-PTPσ or non-transfected; lysed in NP lysis buffer; immunoprecipitated with anti-TRKB antibody and Sepharose, blotted for PTPσ, reblotted for TRKB; MG87.TRKA cells as control of the antibody
[2] = target: TRKB, endogenous in rat primary cortical neurons (rat (endogenous in primary cortical neurons)) (UniProt Q63604); experiment: ELISA; rat primary cortical neurons 7 DIV, vehicle or fluoxetine 0.1 and 1 uM for 30 min; TRKB captured on the plate with anti-TRKB antibody, bound PTPσ detected with anti-PTPσ antibody
[3] = target: GFP-tagged full-length TRKB (plasmid HP220GFP-TRKB) (UniProt Q63604); experiment: ELISA; HEK293T cells transfected with WT or R427A/Y433F TRKB, vehicle or fluoxetine 10 uM for 30 min; TRKB captured with anti-TRKB antibody, bound PTPσ detected with anti-PTPσ antibody
[4] = target: TRKB carrying Y433F/R427A mutation (UniProt Q63604); experiment: as above

Q: How did the binding [1] turn out when “PTPσ Myc-DDK-tagged (OriGene ORF plasmid RR209636) (from UniProt Q64605-2 30-1863) (receptor)” was run?
A: Its binding is “binds”.

Q: Which binding [2] does the source give for “PTPσ, endogenous in rat primary cortical neurons (from UniProt Q64605 30-1907) (receptor)” here?
A: Its binding is “binds”.

Q: Which binding [3] does the source give for “PTPσ in HEK293T cells (from UniProt Q13332 30-1948) (receptor)” here?
A: Its binding is “binds”.

Q: What about the binding [4] of the same substance?
A: Its binding is “binds”.
